Some of the results follow. The data scatter; read single values as rough.
Tests used:
[1] = compound: ClCC(=O)N[C@@H]1CCCc2ccccc12; assay: log2 mean competition ratio of IA-DTB cysteine labelling (DMSO/compound) (log2 ratio); higher = stronger cysteine engagement by compound; details: treatment time: 4 h, cell line lysate: HEK293T
Method: (§1)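 IA-DTB competitive cysteine chemoproteomics in HEK293T RIPA lysate. Lysates were treated with compound 29 or 30 at 50 or 200 µM for 4 h, then IA-DTB (500 µM, 1 h), trypsin-digested, NeutrAvidin-enriched and analysed by diaPASEF. Competition ratio = intensity DMSO / intensity compound (n=4 treated, n=64 DMSO); binding: mean log2 CR ≥ 1 and p ≤ 0.05 plus QC filters. Target is the cysteine site.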

Protein sequences, listed by entry. Tags and fused reporters are not part of them. Lines headed by an entry give the natural chain unless they say otherwise; changes in a name come on top. Residues count along the entry.
UniProt Q06546: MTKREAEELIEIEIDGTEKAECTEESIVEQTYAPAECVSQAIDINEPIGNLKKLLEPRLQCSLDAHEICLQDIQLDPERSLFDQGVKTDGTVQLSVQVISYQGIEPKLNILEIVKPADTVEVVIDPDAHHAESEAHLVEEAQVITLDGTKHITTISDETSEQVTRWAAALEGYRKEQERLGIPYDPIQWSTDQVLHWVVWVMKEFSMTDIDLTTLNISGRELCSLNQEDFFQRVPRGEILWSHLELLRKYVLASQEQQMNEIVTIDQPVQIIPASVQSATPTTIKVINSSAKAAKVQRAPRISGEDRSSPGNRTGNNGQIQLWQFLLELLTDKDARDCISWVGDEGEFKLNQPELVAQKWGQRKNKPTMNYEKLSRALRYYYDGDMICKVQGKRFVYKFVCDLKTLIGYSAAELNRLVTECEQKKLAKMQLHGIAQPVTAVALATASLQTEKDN
UniProt Q9BTY2: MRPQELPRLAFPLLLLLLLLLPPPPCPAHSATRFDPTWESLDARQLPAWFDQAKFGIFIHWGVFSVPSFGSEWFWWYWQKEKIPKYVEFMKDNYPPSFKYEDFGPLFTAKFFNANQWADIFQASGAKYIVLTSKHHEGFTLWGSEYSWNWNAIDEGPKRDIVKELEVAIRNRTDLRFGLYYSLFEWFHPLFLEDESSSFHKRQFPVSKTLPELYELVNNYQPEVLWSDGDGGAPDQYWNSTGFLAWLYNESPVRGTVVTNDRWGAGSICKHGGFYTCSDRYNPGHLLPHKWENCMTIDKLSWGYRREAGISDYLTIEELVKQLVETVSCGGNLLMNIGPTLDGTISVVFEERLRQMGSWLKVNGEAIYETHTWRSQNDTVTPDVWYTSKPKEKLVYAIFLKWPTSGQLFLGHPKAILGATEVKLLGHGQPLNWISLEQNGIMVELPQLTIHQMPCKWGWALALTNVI
UniProt Q0JRZ9, 263-285: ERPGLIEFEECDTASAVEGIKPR
UniProt Q86WN1: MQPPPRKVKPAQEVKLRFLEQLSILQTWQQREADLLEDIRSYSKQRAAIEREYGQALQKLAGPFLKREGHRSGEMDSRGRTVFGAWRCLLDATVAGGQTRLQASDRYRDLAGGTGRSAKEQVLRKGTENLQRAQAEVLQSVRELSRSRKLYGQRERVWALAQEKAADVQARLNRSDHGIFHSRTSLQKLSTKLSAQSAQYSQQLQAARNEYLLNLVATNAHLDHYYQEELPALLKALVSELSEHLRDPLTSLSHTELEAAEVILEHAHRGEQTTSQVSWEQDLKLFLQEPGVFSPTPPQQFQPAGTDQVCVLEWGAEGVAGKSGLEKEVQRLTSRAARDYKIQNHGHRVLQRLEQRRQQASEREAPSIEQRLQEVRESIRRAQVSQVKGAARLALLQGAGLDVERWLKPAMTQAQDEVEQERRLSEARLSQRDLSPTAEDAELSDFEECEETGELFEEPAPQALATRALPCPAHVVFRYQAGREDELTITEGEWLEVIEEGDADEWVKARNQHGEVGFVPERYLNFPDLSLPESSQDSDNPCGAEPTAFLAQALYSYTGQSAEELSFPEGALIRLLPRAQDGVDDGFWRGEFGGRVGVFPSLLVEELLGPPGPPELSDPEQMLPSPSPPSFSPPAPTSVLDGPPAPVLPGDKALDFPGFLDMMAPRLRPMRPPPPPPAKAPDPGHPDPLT
UniProt Q8NFF5: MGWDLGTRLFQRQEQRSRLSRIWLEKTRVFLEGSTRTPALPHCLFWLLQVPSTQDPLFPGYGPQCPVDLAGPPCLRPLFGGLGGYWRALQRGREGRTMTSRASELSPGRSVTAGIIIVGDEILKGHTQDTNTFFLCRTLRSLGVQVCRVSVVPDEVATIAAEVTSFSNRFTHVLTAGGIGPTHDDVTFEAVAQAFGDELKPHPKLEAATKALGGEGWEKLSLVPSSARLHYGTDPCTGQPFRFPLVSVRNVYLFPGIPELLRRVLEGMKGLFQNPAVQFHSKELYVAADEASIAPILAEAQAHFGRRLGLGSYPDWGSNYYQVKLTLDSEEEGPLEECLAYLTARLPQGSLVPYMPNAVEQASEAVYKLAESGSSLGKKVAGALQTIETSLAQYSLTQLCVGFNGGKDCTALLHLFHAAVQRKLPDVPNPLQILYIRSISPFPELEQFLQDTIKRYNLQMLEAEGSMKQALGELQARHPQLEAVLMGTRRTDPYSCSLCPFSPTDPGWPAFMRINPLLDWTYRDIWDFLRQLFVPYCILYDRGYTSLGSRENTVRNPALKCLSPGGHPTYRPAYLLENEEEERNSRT
UniProt O75369, whole entry, looked up: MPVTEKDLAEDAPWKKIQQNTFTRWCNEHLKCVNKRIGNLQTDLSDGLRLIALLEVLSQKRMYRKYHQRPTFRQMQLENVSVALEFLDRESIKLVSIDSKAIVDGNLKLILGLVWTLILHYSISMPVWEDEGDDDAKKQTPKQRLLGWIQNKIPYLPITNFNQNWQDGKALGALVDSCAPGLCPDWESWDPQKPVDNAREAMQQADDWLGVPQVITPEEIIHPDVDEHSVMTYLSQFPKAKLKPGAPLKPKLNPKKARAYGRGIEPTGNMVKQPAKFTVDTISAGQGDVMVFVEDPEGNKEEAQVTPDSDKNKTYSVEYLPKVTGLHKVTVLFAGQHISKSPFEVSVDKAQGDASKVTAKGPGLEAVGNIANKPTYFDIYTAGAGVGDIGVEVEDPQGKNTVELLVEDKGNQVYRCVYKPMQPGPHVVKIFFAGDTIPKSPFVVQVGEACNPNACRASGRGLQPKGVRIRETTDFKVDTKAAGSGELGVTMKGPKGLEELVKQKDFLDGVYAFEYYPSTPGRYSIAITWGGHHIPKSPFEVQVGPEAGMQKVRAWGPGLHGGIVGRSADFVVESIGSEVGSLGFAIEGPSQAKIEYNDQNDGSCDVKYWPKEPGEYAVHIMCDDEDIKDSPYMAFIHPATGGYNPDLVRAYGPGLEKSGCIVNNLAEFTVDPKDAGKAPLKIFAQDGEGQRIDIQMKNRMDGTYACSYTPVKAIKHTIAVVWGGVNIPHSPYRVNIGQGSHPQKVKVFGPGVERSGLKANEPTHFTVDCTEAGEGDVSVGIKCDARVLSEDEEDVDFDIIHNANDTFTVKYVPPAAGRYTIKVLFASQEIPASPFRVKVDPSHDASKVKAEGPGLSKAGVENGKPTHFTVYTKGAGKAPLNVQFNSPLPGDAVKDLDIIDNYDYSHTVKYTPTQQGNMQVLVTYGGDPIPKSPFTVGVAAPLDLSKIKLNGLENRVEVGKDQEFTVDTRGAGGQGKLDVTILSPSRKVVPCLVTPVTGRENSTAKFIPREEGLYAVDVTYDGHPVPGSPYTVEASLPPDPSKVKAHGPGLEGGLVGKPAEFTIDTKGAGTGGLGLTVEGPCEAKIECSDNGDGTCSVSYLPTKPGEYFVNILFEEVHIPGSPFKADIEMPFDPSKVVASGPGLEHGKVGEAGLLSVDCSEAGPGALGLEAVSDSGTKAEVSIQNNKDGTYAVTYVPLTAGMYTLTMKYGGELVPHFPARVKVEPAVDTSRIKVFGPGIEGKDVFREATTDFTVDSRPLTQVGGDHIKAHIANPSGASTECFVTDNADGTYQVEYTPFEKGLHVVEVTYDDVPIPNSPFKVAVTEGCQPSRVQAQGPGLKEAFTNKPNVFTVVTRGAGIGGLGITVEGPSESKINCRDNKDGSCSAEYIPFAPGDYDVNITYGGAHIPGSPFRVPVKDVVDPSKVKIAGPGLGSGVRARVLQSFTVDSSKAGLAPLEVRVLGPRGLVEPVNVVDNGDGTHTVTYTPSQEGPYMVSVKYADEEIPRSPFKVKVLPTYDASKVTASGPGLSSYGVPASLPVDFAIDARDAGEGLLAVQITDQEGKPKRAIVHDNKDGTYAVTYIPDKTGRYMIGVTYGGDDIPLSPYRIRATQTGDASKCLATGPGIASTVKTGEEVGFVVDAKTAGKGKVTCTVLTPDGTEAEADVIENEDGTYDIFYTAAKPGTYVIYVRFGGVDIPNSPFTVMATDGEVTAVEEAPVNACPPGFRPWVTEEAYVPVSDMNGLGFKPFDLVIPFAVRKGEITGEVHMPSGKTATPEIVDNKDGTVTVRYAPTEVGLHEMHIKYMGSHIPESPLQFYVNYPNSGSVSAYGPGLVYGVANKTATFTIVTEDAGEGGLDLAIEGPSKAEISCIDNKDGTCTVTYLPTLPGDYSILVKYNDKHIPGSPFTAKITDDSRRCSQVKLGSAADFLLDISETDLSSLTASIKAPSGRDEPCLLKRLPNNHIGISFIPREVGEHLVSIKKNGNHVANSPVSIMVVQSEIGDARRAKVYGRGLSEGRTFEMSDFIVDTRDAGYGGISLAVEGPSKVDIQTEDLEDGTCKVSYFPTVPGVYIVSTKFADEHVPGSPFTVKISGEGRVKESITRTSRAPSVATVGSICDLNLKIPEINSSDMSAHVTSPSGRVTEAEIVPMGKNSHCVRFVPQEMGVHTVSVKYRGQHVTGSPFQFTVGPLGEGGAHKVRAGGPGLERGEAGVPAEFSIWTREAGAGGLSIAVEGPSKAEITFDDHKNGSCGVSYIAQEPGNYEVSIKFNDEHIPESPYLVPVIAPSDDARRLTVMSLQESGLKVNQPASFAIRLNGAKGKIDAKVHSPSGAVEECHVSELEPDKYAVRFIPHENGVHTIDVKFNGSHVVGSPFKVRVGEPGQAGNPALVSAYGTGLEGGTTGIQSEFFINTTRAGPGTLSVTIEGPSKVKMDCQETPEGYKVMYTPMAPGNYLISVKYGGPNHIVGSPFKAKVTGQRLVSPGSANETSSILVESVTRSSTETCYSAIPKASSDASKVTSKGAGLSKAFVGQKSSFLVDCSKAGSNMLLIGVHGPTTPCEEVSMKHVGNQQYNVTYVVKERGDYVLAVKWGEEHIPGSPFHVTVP
UniProt P51570: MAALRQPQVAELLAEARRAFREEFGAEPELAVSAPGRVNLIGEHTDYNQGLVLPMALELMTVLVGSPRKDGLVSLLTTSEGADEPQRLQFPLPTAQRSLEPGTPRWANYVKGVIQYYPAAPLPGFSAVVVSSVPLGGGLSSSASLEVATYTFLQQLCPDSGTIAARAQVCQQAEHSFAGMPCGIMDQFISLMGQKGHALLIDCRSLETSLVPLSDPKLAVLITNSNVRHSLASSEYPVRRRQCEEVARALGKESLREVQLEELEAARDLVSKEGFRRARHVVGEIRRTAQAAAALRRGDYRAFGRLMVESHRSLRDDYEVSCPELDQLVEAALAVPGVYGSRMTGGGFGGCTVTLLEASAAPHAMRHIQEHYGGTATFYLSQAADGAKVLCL
UniProt P85037, 236-259: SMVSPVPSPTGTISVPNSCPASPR
UniProt Q9UET6, 262-281: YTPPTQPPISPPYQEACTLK
UniProt P51116, whole entry, looked up: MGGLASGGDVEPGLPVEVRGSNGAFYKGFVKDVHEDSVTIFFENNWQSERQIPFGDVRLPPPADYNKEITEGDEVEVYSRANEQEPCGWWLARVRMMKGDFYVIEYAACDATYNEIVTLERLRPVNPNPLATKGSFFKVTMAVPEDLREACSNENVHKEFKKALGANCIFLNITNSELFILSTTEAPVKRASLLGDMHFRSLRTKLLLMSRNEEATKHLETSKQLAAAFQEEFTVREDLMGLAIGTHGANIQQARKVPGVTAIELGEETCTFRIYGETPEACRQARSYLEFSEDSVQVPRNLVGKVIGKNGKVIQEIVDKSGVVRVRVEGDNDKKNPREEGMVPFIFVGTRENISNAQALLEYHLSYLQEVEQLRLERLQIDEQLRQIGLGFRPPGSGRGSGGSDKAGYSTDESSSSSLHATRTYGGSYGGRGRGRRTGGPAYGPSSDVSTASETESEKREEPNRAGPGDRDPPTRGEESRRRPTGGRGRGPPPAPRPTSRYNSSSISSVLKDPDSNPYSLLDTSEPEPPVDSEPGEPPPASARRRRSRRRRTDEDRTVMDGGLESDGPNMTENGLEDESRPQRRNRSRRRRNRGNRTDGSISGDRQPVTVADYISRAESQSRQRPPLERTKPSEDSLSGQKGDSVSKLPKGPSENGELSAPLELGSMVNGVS
UniProt Q9BQS8, 732-751: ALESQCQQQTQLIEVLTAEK
UniProt Q9Y2H6, 771-793: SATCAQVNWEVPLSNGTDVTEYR
UniProt Q8NB37, 175-194: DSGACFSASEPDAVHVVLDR
UniProt Q96IG2: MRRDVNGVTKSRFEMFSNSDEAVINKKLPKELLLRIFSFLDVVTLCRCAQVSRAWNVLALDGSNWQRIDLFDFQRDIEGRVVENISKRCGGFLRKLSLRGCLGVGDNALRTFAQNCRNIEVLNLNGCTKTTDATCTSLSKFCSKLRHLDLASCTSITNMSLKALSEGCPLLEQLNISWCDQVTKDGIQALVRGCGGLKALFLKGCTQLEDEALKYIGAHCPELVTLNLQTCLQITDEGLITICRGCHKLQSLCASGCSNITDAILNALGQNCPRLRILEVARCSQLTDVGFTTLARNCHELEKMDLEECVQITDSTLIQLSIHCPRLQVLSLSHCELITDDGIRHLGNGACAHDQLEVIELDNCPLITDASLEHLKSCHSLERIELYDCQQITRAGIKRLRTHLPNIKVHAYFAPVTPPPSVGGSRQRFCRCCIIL
UniProt Q9NY12, 88-107: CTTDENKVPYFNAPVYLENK

[2] = compound: ClCC(=O)N[C@H]1CCCc2ccccc12; assay: as above; details: treatment time: 4 h, cell line lysate: HEK293T
Method: as §1

Target | log2 mean competition ratio ([1]; 50 µM) | log2 mean competition ratio ([1]; 200 µM) | log2 mean competition ratio ([2]; 50 µM) | log2 mean competition ratio ([2]; 200 µM)
GABPA C338 (UniProt Q06546) | 0.181 | -0.32 | 0.463 | -0.209
FUCA2 C269 (UniProt Q9BTY2) | 0.0972 | 0.272 | 0.387 | 0.356
FER C344 (UniProt P16591) | 0.0169 | -0.052 | -0.157 | -0.174
FASTKD5 C670 (UniProt Q7L8L6) | 0.238 | 0.0969 | 0.0737 | 0.294
FKBP10 C110 (UniProt Q96AY3) | -0.00616 | 0.0822 | 0.146 | 0.213
FRYL C560 (UniProt O94915) | 0.134 | -0.0619 | 0.158 | -0.14
GAN C452 (UniProt Q9H2C0) | 0.0915 | -0.349 | -0.592 | 0.0701
FCHO2 C273 (UniProt Q0JRZ9) | -0.126 | 0.101 | -0.445 | -0.162
FBL C99 (UniProt P22087) | 0.0716 | 0.0322 | 0.152 | -0.0109
FCHSD1 C88 (UniProt Q86WN1) | -0.427 | 0.103 | -0.355 | 0.174
FLAD1 C147 (UniProt Q8NFF5) | 0.241 | -0.0286 | 0.0637 | 0.0305
FASTKD2 C366 (UniProt Q9NYY8) | -0.16 | -0.151 | 0.265 | 0.0173
GARRE1 C573 | -0.104 | -0.142 | 0.261 | 0.161
FLNB C1868 (UniProt O75369) | -0.0616 | -0.279 | 0.0852 | -0.0521
FASN C1141 | 0.0107 | 0.0793 | -0.119 | 0.0445
FBXL19 C246 (UniProt Q6PCT2) | 0.0783 | 0.271 | -0.0248 | 0.282
FASTKD2 C546 (UniProt Q9NYY8) | 0.424 | 0.0831 | 0.178 | 0.011
GALK1 C243 (UniProt P51570) | -0.363 | 0.383 | 0.308 | 0.327
FASN C1471 | -0.429 | -0.0631 | 0.374 | -0.188
FOXK1 C254 (UniProt P85037) | 0.0986 | 0.441 | 0.0637 | 0.071
G6PD C294 | -0.501 | 0.0176 | 0.0799 | -0.187
FCSK C970 (UniProt Q8N0W3) | -0.308 | 0.208 | -0.127 | 0.589
GABPA C223 (UniProt Q06546) | -0.273 | -0.257 | -0.113 | -0.297

Target | log2 mean competition ratio ([1]; 50 µM) | log2 mean competition ratio ([1]; 200 µM) | log2 mean competition ratio ([2]; 50 µM) | log2 mean competition ratio ([2]; 200 µM)
FMR1 C584 (UniProt Q06787) | -0.0615 | 0.331 | -0.12 | 0.344
FOXC1 C550 | 0.0385 | 0.236 | 0.496 | 0.302
FECH C360 (UniProt P22830) | 0.0663 | -0.264 | -0.0597 | -0.0448
FPGT C424 (UniProt O14772) | 0.624 | -0.175 | 0.454 | -0.19
FTSJ1 C278 (UniProt Q9UET6) | 0.146 | 0.00118 | 0.407 | 0.0302
FXR2 C151 (UniProt P51116) | -0.245 | -0.00011 | -0.124 | -0.0647
FSCN1 C19 (UniProt Q16658) | 0.0351 | -0.0586 | 0.39 | -0.0959
FOXC1 C233 | -0.351 | -0.284 | -0.365 | -0.149
FYCO1 C882 (UniProt Q9BQS8) | -0.191 | -0.0321 | -0.721 | -0.234
FLNA C1453 | -0.289 | -0.0225 | -0.13 | -0.00808
FNDC3A C774 (UniProt Q9Y2H6) | 0.139 | -0.104 | 0.545 | -0.198
FBXO38 C791 (UniProt Q6PIJ6) | -0.137 | -0.0164 | 0.033 | 0.181
FN3KRP C24 (UniProt Q9HA64) | 0.465 | 0.221 | 0.414 | -0.058
GATD1 C179 (UniProt Q8NB37) | -0.212 | -0.199 | -0.296 | -0.304
FBXL20 C205 (UniProt Q96IG2) | 0.151 | -0.143 | -0.101 | 0.141
FAT1 C3023 (UniProt Q14517) | 0.0175 | -0.172 | -0.215 | 0.0142
FXR1 C129 (UniProt P51114) | 0.0768 | -0.163 | -0.246 | -0.11
FYCO1 C737 (UniProt Q9BQS8) | -0.206 | -0.107 | -0.212 | 0.064
FLII C241 (UniProt Q13045) | -0.0189 | -0.11 | -0.08 | 0.0383
FOXF2 C404 | 0.212 | 0.355 | 0.556 | 0.6
GAR1 C88 (UniProt Q9NY12) | -0.248 | 0.323 | -0.26 | -0.0725
FAT1 C4512 (UniProt Q14517) | -0.287 | -0.144 | -0.194 | 0.426

Reprinted at random: 2 records from the list.
Target | log2 mean competition ratio ([1]; 50 µM) | log2 mean competition ratio ([1]; 200 µM) | log2 mean competition ratio ([2]; 50 µM) | log2 mean competition ratio ([2]; 200 µM)
FCSK C970 (UniProt Q8N0W3) | -0.308 | 0.208 | -0.127 | 0.589
FCHO2 C273 (UniProt Q0JRZ9) | -0.126 | 0.101 | -0.445 | -0.162
